The results in this text go back to article PMC6821912.

Sequences of proteins named here, by UniProt entry; tags and fusion partners are left off.
UniProt O15105: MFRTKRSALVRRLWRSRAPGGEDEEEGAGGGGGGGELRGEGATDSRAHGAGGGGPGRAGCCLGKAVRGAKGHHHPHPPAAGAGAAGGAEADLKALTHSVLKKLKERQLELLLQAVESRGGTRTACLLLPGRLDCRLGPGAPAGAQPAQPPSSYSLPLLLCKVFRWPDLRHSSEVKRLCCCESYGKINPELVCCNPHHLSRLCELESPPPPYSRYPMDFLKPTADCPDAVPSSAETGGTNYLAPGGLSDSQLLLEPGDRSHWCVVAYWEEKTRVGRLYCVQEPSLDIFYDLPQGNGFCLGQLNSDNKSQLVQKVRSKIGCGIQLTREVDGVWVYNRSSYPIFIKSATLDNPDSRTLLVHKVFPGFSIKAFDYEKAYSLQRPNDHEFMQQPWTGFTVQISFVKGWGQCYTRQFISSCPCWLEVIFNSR
UniProt Q9HCE7: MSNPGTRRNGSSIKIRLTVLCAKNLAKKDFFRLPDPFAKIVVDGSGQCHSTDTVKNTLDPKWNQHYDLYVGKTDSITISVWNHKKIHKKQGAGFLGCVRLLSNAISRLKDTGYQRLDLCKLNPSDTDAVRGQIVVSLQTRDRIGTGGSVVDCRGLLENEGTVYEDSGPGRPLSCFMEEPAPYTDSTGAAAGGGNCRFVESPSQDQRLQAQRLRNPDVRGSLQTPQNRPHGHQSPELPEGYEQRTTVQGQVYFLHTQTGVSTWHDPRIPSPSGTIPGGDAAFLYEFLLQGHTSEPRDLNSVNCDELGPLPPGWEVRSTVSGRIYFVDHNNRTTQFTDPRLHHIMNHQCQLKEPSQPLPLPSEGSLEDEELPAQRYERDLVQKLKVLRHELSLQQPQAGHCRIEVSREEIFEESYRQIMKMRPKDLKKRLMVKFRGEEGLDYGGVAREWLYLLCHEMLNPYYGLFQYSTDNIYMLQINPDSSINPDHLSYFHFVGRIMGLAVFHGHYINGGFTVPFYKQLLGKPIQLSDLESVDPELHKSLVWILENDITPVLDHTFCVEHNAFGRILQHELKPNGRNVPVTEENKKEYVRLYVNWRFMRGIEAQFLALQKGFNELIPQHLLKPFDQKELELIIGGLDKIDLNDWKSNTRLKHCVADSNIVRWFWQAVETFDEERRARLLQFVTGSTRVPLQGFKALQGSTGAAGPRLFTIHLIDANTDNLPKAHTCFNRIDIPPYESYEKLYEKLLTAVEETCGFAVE

The target of assay [1] is T1, Strep-tagged Gadd45β (human) (UniProt O75293).
T1 sequence: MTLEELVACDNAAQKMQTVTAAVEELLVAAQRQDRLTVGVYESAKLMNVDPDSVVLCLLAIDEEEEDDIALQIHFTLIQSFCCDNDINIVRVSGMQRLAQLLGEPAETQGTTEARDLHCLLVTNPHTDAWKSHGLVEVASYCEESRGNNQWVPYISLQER
Description: pull-down; Strep pull-down (Strep-Tactin Sepharose, overnight, 4 °C) from RIPA lysates of HEK293T cells co-transfected with HA-Smad7 and Strep-Gadd45β; immunoblot with anti-HA and anti-Strep. (In general: Immunoblotting shows a protein as a band on a membrane.)

The target of assay [2] is GST-tagged Smad7 (WT, in HEK293T cells) (human) (UniProt O15105). As to the kind of experiment: pull-down; GST pull-down from RIPA lysates of HEK293T cells co-transfected with GST-Smad7, Myc-Smurf1 and rising doses of V5-Gadd45β; immunoblot with anti-Myc or anti-V5.
In assay [3] the target is GST-tagged Smad7 (in Caco-2 cells) (human) (UniProt O15105). Description: pull-down; GST pull-down (Glutathione 4B, overnight, 4 °C) from RIPA lysates of Caco-2 cells overexpressing GST-Smad7, treated with or without TGF-β1 (10 ng/mL) for 10 min; immunoblot with anti-Gadd45β.

These are yes or no findings as the source states them, for the method shown. In cells and extracts the contact can be indirect. Some entries that bind do so weakly or less than the wild type. For some of these results: Sequences can lack the tags named with a protein.

In the case of “HA-tagged Smad7 (from UniProt O15105 1-426)”, the binding result in assay [1] was “binds”.

With “Myc-tagged Smurf1 (from UniProt Q9HCE7 1-757) (enzyme)”, the binding result in assay [2] was “binds”.

B1: Growth arrest and DNA damage-inducible 45 beta (Gadd45β), endogenous in Caco-2 cells (protein, UniProt O75293 1-160)
chain: MTLEELVACDNAAQKMQTVTAAVEELLVAAQRQDRLTVGVYESAKLMNVDPDSVVLCLLAIDEEEEDDIALQIHFTLIQSFCCDNDINIVRVSGMQRLAQLLGEPAETQGTTEARDLHCLLVTNPHTDAWKSHGLVEVASYCEESRGNNQWVPYISLQER
B1: the binding entry in assay [3] is “binds”.

B2: V5-tagged Gadd45β (protein, UniProt O75293 1-160)
chain: MTLEELVACDNAAQKMQTVTAAVEELLVAAQRQDRLTVGVYESAKLMNVDPDSVVLCLLAIDEEEEDDIALQIHFTLIQSFCCDNDINIVRVSGMQRLAQLLGEPAETQGTTEARDLHCLLVTNPHTDAWKSHGLVEVASYCEESRGNNQWVPYISLQER
For B2, the binding entry in assay [2] is “binds”.
